Where two headings read alike, the source gives them in different places. The structures given here were assigned with low confidence; some may be wrong. A value given as a limit tells only on which side of the number the result lay.

The chains behind the UniProt entries cited, without tags or fusion partners. Residues count along the entry.
UniProt P01116, 1-188 isoform 2 G12D: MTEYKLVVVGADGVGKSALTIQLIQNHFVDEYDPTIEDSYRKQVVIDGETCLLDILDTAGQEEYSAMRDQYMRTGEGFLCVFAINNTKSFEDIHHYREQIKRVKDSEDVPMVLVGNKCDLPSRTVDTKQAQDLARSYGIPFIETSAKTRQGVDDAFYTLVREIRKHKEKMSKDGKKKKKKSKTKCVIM

As a reminder, the DC50 is the concentration giving 50% degradation.

For the test, the target named is AsPC-1 HiBiT-KRASG12D (Homo sapiens, UniProt P01116, G12D). In words: HiBiT degradation assay (G12D), AsPC-1 HiBiT-KRASG12D cells. To be noted: for AsPC-1 HiBiT-KRASG12D DMax: 24 hours treatment, maximum degradation observed.
The mark [1] stands for this setting: read-out: AsPC-1 HiBiT-KRASG12D DC50, 24 hours treatment, HiBiT luminescence.

Regarding `CCc1cccc2cc(O)cc(-c3ncc4c(N5CC6CCC(C5)N6)nc(OC[C@@H]5CC[C@@H](COC(=O)N6CCC(Oc7cc([C@H](C(=O)N8C[C@H](O)C[C@H]8C(=O)N[C@@H](C)c8ccc(-c9scnc9C)cc8)C(C)C)on7)CC6)N5C)nc4c3F)c12`, under “tested form: formic acid salt”, the “AsPC-1 HiBiT-KRASG12D DMax” value is listed as “A (80% < A ≤ 100%)”. Moreover, the DC50 (read-out: AsPC-1 HiBiT-KRASG12D DC50, 24 hours treatment, HiBiT luminescence, tested form: formic acid salt) is less than 600 nM.

In the case of `C#Cc1c(F)ccc2cc(O)cc(-c3ncc4c(N5CC6CCC(C5)N6)nc(OCCN5CCC(F)(CN6CCN(c7cnc(C(=O)N[C@H](C(=O)N8C[C@H](O)C[C@H]8C(=O)N[C@@H](C)c8ccc(-c9scnc9C)cc8)C(C)(C)C)cn7)CC6)CC5)nc4c3F)c12`, the “AsPC-1 HiBiT-KRASG12D DMax” value is “A (80% < A ≤ 100%)”. The half-maximal degradation concentration (DC50) under setting [1] is less than 600 nM.

For the compound `CCc1cccc2cc(O)cc(-c3ncc4c(N5CC6CCC(C5)N6)nc(OCCN5CCC(CN6CCN(CC(=O)N[C@H](C(=O)N7C[C@H](O)C[C@H]7C(=O)N[C@@H](C)c7ccc(-c8scnc8C)cc7)C(C)(C)C)CC6)CC5)nc4c3F)c12`, the “AsPC-1 HiBiT-KRASG12D DMax” value was “A (80% < A ≤ 100%)”. Besides, the DC50 under setting [1] is less than 600 nM.

Values taken from patent US20250206732A1, “COMPOUNDS AND METHODS FOR THE TARGETED DEGRADATION OF KRAS” (Arvinas Operations, Inc., priority 2022, published 2025).
